Experimental findings from patent US7842280B2 (Case Western Reserve University, priority 2006, dated 2010) are described below.

A short description of this data set: general procedure: Fmoc solid-phase peptide synthesis; Wang resin (aminoDOTA-loaded Wang resin; Fluka Wang resin 0.75 mmol/g); HBTU/HOBt. The conditions noted are these: conjugation step, by weight.

Ac-PLGMWSG-DOTA had a conjugation yield of 71% by weight.
